No constants are given. Whether binding was seen depends on the method and setting. In cells and extracts the contact can be indirect. Here binding means that the protein was enriched with, or labelled near, the bait; the list need not be complete.
Molecular target: NACHT, LRR, and PYD domains-containing protein 3 (mouse (endogenous in Kupffer cells)) (UniProt Q8R4B8)
Assay: affinity purification with mass spectrometry; bands cut from the Coomassie-stained gel of the anti-NLRP3 Co-IP of Kupffer cell lysate, trypsin digest, nano-LC-MS/MS (Q-Exactive, Maxquant)

Sequences of proteins named here, by UniProt entry; tags and fusion partners are left off.
UniProt Q8R4B8: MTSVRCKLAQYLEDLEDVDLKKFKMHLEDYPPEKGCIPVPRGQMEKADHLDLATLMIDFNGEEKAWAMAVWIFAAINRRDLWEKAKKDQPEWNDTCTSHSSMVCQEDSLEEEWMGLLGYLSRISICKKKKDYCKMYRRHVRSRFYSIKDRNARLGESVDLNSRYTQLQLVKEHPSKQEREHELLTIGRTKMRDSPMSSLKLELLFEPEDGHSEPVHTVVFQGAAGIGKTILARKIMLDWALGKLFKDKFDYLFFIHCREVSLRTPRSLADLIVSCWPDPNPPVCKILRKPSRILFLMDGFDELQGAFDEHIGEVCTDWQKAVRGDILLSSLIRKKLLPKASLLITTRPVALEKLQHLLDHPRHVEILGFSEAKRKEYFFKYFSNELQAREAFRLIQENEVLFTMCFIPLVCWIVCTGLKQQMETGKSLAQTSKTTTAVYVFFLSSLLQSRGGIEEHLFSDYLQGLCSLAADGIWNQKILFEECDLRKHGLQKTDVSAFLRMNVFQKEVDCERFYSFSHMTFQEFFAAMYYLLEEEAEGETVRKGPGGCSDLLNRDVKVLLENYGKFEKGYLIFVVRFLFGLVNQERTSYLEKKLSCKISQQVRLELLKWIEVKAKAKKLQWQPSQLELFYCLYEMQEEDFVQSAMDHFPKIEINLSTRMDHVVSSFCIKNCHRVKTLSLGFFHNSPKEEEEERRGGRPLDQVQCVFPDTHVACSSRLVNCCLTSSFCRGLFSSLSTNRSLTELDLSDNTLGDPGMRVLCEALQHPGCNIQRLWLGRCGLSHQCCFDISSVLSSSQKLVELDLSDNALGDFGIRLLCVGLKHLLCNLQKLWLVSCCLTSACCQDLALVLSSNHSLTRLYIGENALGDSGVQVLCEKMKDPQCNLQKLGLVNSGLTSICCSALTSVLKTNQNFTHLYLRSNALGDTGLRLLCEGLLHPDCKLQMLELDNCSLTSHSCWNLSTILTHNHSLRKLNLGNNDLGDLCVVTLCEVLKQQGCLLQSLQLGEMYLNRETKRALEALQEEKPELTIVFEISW

B1: Thioredoxin-interacting protein (protein, UniProt Q8BG60 1-397)
chain: MVMFKKIKSFEVVFNDPEKVYGSGEKVAGRVIVEVCEVTRVKAVRILACGVAKVLWMQGSQQCKQTLDYLRYEDTLLLEEQPTAGENEMVIMRPGNKYEYKFGFELPQGPLGTSFKGKYGCVDYWVKAFLDRPSQPTQEAKKNFEVMDLVDVNTPDLMAPVSAKKEKKVSCMFIPDGRVSVSARIDRKGFCEGDDISIHADFENTCSRIVVPKAAIVARHTYLANGQTKVFTQKLSSVRGNHIISGTCASWRGKSLRVQKIRPSILGCNILKVEYSLLIYVSVPGSKKVILDLPLVIGSRSGLSSRTSSMASRTSSEMSWIDLNIPDTPEAPPCYMDIIPEDHRLESPTTPLLDDVDDSQDSPIFMYAPEFQFMPPPTYTEVDPCVLNNNNNNNNVQ
Q: B1 was tested. Which binding did it give?
A: binds

From publication PMC5514938
